From the supplement of paper PMC10849652
The list shows a part of the results.

By UniProt entry, the sequences of proteins in these tests, tags left out. Where a name states a change or a piece, a line headed by the entry shows the natural chain unless it says otherwise.
UniProt Q9H910: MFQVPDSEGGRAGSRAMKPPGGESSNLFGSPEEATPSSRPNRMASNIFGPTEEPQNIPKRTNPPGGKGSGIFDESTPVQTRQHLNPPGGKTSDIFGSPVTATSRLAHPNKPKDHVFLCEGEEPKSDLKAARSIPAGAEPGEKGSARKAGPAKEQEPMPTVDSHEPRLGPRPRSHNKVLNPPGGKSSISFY
UniProt Q9ULH0: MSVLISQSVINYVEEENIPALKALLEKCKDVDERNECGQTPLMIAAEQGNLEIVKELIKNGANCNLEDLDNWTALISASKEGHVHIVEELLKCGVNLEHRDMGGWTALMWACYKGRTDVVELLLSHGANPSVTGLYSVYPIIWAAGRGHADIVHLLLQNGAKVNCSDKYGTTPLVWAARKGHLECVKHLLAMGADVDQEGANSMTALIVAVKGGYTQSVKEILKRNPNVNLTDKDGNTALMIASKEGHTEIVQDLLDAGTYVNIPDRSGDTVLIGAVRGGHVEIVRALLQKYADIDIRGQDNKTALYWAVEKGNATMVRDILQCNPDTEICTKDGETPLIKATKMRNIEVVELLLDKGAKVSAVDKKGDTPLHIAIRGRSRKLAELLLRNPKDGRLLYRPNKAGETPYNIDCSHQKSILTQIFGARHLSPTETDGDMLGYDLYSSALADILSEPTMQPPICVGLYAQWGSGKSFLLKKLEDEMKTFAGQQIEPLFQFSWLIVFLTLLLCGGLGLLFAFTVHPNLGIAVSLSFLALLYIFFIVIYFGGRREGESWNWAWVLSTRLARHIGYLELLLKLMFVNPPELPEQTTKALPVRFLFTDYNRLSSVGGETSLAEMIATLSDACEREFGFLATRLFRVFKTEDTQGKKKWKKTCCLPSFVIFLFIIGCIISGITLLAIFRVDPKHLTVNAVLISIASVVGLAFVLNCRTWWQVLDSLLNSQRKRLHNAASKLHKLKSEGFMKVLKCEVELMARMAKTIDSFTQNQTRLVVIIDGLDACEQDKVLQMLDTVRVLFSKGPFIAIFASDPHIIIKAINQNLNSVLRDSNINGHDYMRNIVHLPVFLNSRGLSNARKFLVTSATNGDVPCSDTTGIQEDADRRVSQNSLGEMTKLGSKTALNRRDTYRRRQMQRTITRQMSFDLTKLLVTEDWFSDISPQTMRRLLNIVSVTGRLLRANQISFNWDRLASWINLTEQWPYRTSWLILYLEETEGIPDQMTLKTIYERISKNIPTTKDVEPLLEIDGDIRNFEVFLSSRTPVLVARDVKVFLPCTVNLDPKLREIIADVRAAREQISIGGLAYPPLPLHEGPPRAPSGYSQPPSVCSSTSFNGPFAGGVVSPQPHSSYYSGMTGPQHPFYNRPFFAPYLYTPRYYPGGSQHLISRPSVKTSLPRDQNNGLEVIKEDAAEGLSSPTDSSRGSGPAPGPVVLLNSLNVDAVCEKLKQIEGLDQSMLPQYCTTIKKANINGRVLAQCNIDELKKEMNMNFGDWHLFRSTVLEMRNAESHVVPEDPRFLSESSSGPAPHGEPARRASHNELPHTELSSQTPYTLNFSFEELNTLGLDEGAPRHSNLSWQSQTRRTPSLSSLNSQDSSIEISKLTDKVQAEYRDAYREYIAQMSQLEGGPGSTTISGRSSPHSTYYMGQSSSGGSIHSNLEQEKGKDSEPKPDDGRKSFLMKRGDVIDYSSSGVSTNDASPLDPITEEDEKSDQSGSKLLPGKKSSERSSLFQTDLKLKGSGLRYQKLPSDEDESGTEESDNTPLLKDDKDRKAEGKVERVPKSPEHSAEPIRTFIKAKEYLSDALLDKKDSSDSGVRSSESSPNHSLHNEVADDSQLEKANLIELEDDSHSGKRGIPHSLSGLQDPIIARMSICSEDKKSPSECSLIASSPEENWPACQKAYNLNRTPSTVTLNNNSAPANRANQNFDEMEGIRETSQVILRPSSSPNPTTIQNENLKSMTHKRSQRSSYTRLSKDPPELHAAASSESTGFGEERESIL
UniProt Q9BVA0, whole entry, looked up: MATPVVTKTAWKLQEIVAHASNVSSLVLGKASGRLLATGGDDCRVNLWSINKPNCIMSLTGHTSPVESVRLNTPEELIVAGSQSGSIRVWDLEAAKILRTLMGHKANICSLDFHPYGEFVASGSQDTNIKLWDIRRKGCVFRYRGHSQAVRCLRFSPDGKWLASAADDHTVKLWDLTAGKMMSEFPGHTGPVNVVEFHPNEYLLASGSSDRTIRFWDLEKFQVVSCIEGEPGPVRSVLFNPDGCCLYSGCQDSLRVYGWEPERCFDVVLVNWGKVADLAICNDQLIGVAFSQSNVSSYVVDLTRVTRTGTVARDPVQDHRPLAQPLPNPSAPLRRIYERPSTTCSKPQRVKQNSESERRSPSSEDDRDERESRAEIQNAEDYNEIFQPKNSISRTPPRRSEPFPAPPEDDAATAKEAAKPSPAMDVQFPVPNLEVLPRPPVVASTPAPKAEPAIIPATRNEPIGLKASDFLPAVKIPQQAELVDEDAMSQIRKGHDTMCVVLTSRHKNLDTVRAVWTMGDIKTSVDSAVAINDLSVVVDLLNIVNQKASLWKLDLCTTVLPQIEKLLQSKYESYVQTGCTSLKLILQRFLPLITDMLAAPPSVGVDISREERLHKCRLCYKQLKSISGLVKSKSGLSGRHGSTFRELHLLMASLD
UniProt P50053: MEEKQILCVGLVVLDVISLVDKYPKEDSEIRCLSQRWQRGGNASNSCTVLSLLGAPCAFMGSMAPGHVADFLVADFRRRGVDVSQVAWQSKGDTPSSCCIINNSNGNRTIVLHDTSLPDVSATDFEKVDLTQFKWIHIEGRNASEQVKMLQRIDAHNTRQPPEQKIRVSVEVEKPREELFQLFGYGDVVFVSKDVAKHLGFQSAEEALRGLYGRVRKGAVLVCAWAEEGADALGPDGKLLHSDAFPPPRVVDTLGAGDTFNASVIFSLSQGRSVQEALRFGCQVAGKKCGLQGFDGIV
UniProt Q13303: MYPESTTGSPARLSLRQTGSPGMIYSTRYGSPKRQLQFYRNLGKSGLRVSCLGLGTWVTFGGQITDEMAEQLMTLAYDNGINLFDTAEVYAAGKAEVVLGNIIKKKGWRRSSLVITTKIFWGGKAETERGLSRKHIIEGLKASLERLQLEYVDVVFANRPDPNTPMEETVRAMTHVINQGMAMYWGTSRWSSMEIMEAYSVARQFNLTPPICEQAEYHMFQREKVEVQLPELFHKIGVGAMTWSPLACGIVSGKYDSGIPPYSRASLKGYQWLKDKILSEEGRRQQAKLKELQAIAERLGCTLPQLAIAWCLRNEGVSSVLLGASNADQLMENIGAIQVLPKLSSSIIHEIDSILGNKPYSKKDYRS
UniProt Q8NFY9: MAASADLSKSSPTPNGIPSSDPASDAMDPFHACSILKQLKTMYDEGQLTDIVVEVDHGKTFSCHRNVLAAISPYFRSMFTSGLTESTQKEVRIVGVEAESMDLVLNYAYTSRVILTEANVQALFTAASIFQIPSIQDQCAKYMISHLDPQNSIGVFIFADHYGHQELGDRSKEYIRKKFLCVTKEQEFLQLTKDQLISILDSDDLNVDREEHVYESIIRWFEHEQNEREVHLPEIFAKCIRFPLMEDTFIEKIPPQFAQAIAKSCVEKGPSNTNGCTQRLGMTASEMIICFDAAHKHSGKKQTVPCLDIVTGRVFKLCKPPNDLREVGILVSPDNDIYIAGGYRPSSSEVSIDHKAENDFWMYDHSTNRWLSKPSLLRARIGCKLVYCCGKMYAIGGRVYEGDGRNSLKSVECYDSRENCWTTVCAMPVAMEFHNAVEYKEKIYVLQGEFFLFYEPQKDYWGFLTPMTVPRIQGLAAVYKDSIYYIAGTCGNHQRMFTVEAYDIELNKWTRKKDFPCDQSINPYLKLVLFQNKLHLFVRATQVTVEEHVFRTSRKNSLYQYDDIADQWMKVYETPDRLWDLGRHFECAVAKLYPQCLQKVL
UniProt Q9NVR0: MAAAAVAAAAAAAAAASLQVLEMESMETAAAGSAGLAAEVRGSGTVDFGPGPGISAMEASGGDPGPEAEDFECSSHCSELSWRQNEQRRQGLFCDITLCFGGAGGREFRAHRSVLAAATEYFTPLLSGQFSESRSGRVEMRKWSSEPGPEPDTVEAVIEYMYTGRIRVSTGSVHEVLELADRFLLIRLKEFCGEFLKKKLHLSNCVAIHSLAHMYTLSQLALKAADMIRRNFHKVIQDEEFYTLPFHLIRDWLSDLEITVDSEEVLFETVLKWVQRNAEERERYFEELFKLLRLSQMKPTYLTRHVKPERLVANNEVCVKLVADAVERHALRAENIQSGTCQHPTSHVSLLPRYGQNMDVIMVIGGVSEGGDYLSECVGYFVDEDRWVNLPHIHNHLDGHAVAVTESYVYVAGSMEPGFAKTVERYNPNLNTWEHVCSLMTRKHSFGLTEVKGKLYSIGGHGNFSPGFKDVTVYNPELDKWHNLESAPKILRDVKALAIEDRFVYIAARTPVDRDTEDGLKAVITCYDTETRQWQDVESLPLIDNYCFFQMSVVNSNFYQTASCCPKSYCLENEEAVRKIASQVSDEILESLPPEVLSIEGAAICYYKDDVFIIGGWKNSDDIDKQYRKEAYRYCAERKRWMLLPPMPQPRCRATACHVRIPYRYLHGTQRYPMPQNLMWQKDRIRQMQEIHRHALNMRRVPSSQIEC
UniProt Q8IZA0: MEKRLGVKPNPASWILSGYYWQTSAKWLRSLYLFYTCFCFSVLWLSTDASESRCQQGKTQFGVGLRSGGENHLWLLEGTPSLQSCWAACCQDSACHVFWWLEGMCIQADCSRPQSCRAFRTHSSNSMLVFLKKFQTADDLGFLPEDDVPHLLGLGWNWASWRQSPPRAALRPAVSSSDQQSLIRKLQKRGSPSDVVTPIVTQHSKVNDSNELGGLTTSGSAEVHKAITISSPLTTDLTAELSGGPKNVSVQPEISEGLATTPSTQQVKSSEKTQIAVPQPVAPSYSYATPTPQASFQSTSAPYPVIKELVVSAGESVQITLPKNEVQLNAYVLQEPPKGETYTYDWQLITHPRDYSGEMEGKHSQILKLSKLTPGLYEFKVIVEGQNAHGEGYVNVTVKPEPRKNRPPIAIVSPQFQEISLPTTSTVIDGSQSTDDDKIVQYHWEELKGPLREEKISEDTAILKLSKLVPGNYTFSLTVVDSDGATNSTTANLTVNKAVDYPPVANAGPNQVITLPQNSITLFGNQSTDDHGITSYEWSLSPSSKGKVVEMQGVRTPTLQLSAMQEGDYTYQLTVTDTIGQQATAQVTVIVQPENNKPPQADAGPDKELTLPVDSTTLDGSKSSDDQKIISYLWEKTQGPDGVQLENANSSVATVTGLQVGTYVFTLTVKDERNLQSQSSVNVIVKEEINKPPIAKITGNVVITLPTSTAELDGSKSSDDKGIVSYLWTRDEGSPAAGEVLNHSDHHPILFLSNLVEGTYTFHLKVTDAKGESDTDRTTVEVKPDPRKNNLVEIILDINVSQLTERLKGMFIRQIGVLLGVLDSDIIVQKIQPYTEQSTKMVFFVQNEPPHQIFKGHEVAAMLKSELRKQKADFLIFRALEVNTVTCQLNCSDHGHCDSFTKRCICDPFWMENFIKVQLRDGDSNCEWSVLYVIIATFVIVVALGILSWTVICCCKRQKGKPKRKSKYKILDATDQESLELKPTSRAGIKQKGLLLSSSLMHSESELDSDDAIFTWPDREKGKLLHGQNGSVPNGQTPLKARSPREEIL
UniProt Q02241: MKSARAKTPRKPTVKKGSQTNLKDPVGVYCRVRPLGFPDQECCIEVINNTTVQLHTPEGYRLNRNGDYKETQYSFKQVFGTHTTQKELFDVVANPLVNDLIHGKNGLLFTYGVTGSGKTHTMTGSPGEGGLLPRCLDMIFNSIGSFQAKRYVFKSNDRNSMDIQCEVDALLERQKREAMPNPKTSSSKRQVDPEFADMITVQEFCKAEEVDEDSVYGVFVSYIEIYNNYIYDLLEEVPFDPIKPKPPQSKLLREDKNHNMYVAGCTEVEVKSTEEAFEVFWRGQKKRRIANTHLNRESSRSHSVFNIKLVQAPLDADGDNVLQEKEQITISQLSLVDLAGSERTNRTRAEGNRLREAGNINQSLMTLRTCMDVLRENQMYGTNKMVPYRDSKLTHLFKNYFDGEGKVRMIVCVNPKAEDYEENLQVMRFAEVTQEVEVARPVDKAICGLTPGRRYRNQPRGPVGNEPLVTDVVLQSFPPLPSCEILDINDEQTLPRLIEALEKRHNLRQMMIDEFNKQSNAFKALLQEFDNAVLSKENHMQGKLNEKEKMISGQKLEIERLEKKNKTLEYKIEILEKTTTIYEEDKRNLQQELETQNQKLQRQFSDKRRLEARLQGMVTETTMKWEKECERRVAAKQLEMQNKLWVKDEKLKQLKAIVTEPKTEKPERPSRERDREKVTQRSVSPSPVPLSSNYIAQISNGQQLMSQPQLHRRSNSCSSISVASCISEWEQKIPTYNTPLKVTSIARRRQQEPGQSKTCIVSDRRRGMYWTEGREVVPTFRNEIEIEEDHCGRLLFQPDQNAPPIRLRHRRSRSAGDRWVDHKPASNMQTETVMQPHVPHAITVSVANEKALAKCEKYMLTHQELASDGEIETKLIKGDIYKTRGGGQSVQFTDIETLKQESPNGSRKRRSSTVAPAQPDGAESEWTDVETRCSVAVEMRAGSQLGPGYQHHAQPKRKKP

Assays:
Assay in all cases: log2 fold change, soluble protein after heating vs DMSO (PISA); higher = thermal stabilisation; K562 cells, 10 uM, 30 min; active = over 0.2 and 3.5 SD of the protein, either way, in both replicates (recomputed)
[1] = compound: COC1=CC=C(C=C1)CN2C=CC3=C2C=C(C=C3)C(=O)NO
Procedure, shortened: (§1)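 Soluble protein was quantified by TMTpro 16plex LC-MS/MS after channel sums were equalised. It was obtained as the supernatant after 21,000xg for 90 min from pooled aliquots of K562 cells (2×10^6 cells/mL, 10 μM compound, 30 min) heated for 3 min across 48°C-58°C and extracted in PBS with 0.5% NP-40 at 4°C. Thermal stability values are relative to control samples and come from duplicates. They are given as log2 fold changes.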

[2] = compound: CON(C)C(=O)N1N=C(c2cc(F)ccc2F)S[C@@]1(CCCN)c1ccccc1 [filanesib]
Procedure, shortened: as §1

[3] = compound: CO[C@H]1C[C@@H]2CC[C@@H](C)[C@@](O)(O2)C(=O)C(=O)N2CCCC[C@H]2C(=O)O[C@H]([C@H](C)C[C@@H]2CC[C@H](n3cnnn3)[C@H](OC)C2)CC(=O)[C@H](C)/C=C(\C)[C@@H](O)[C@@H](OC)C(=O)[C@H](C)C[C@H](C)/C=C/C=C/C=C/1C [zotarolimus]
Procedure, shortened: as §1

[4] = compound: COc1cc(C(=O)O)ccc1NC(=O)[C@@H]1N[C@@H](CC(C)(C)C)[C@](C#N)(c2ccc(Cl)cc2F)[C@H]1c1cccc(Cl)c1F [idasanutlin]
Procedure, shortened: as §1

[5] = compound: COc1cc(Nc2ncc3c(n2)-c2ccc(Cl)cc2C(c2c(F)cccc2OC)=NC3)ccc1C(=O)O [alisertib]
Procedure, shortened: as §1

[6] = compound: COc1cc2nc(-c3cc(F)ccc3O)nc(N[C@@H]3CNC[C@H]3C(C)(C)O)c2cc1OC
Procedure, shortened: as §1

[7] = compound: COc1cc2ncnc(Nc3ccc(F)c(Cl)c3)c2cc1OCCCN1CCOCC1 [gefitinib]
Procedure, shortened: as §1

[8] = compound: COc1cccc2cc(-c3nc([C@H]4CC[C@H](C(=O)O)CC4)n4ncnc(N)c34)[nH]c12
Procedure, shortened: as §1

[9] = compound: CS(=O)(=O)CCNCc1ccc(-c2ccc3ncnc(Nc4ccc(OCc5cccc(F)c5)c(Cl)c4)c3c2)o1 [lapatinib]
Procedure, shortened: as §1

[10] = compound: CS(=O)(=O)N1CCN(Cc2cc3nc(-c4cccc5[nH]ncc45)nc(N4CCOCC4)c3s2)CC1 [pictilisib]
Procedure, shortened: as §1

[11] = compound: CS(=O)(=O)c1ccc(-c2cnc(N)c(C(=O)Nc3ccccc3)n2)cc1
Procedure, shortened: as §1

[12] = compound: C[C@@H](Oc1cc(-c2cnn(C3CCNCC3)c2)cnc1N)c1c(Cl)ccc(F)c1Cl [crizotinib]
Procedure, shortened: as §1

[13] = compound: C[C@@H]1COCCN1C2=NC(=NC(=C2)C3(CC3)S(=O)(=O)C)C4=C5C=CNC5=CC=C4
Procedure, shortened: as §1

[14] = compound: C[C@H](C1=CC=C(C=C1)C(=O)NC2=C3C=CNC3=NC=C2)N
Procedure, shortened: as §1

[15] = compound: C[C@H](Nc1ncnc2nc[nH]c12)c1cc2cccc(Cl)c2c(=O)n1-c1ccccc1 [duvelisib]
Procedure, shortened: as §1

[16] = compound: Cc1cc(Nc2cc(CN3CCOCC3)c3nc(C)c(Cc4ccc(Cl)cc4F)n3n2)n[nH]1 [gandotinib]
Procedure, shortened: as §1

[17] = compound: Cc1cc(Nc2cc(N3CCN(C)CC3)nc(Sc3ccc(NC(=O)C4CC4)cc3)n2)n[nH]1 [tozasertib]
Procedure, shortened: as §1

[18] = compound: Cc1cc(SCc2sc(-c3ccc(C(F)(F)F)cc3)nc2C)ccc1OCC(=O)O
Procedure, shortened: as §1

[19] = compound: Cc1ccc(-n2nc(C(C)(C)C)cc2NC(=O)Nc2ccc(OCCN3CCOCC3)c3ccccc23)cc1 [doramapimod]
Procedure, shortened: as §1

[20] = compound: Cc1ccc(C(=O)N(CCCN)[C@@H](c2nc3cc(Cl)ccc3c(=O)n2Cc2ccccc2)C(C)C)cc1 [ispinesib]
Procedure, shortened: as §1

Measured: log2 fold change

KCTD15 (UniProt Q96SI1)
inactive: [1] -0.154 | [2] 0.151 | [3] -0.051 | [4] 0.011 | [5] -0.065 | [6] 0.046 | [7] 0.061 | [8] 0.052 | [9] -0.019 | [10] 0.05 | [11] 0.042 | [12] 0.046 | [13] -0.029 | [14] 0.144 | [15] 0.085 | [16] -0.002 | [17] -0.037 | [18] -0.051 | [19] 0.016 | [20] -0.073

JPT2 isoform 3 (UniProt Q9H910)
inactive: [1] 0.017 | [2] -0.015 | [3] 0.015 | [4] 0.246 | [5] -0.057 | [6] -0.015 | [7] 0.003 | [8] 0.039 | [9] 0.004 | [10] 0.019 | [11] 0.005 | [12] 0.018 | [13] -0.015 | [14] -0.006 | [15] 0.015 | [16] -0.023 | [17] -0.05 | [18] -0.053 | [19] 0.008 | [20] 0.034

KIDINS220 (UniProt Q9ULH0)
inactive: [1] 0.001 | [2] 0.067 | [3] 0.002 | [4] -0.02 | [5] -0.054 | [6] 0.074 | [7] 0.017 | [8] -0.003 | [9] 0.028 | [10] 0.024 | [11] 0.064 | [12] 0.086 | [13] -0.011 | [14] -0.031 | [15] 0.057 | [16] 0.02 | [17] -0.007 | [18] -0.011 | [19] 0.004 | [20] 0.015

KCTD3 (UniProt Q9Y597)
inactive: [1] -0.018 | [2] 0.05 | [3] -0.045 | [4] 0.104 | [5] 0.006 | [6] 0.102 | [7] 0.002 | [8] 0.016 | [9] 0 | [10] -0.039 | [11] 0.031 | [12] -0.013 | [13] 0.069 | [14] 0.147 | [15] 0.065 | [16] 0.084 | [17] -0.049 | [18] -0.047 | [19] -0.006 | [20] -0.093

KATNB1 (UniProt Q9BVA0)
inactive: [1] -0.069 | [2] 0.01 | [3] -0.033 | [4] -0.018 | [5] -0.041 | [6] 0.001 | [7] 0.003 | [8] -0.067 | [9] 0.048 | [10] -0.034 | [11] 0.017 | [12] -0.109 | [13] -0.087 | [14] 0.053 | [15] 0.034 | [16] -0.111 | [17] 0.004 | [18] 0.011 | [19] 0.046 | [20] -0.028

KHK isoform 2 (UniProt P50053)
inactive: [1] 0.024 | [2] 0.04 | [3] -0.072 | [4] -0.038 | [5] -0.03 | [6] -0.054 | [7] -0.039 | [8] 0.044 | [9] -0.001 | [10] -0.027 | [11] 0.048 | [12] 0.031 | [13] 0.011 | [14] -0.01 | [15] 0.054 | [16] 0.005 | [17] -0.055 | [18] 0.021 | [19] -0.016 | [20] -0.042

KCNAB2 (UniProt Q13303)
inactive: [1] -0.055 | [2] 0.044 | [3] 0.007 | [4] -0.088 | [5] -0.082 | [6] 0.026 | [7] -0.03 | [8] 0.092 | [9] 0.002 | [10] 0.08 | [11] 0.008 | [12] 0.035 | [13] 0.021 | [14] 0.018 | [15] 0.009 | [16] -0.045 | [17] 0.031 | [18] 0.003 | [19] -0.06 | [20] -0.01

KIAA2013 isoform 2 (UniProt Q8IYS2)
inactive: [1] -0.04 | [2] -0.048 | [3] 0.002 | [4] -0.077 | [5] -0.005 | [6] 0.062 | [7] 0.015 | [8] 0.065 | [9] -0.074 | [10] -0.034 | [11] -0.023 | [12] 0.071 | [13] 0.046 | [14] -0.029 | [15] 0.035 | [16] 0.069 | [17] -0.033 | [18] -0.01 | [19] 0.006 | [20] 0.013

Random excerpt: 2 records from the list.
KHK isoform 2 (UniProt P50053)
inactive: [1] 0.024 | [2] 0.04 | [3] -0.072 | [4] -0.038 | [5] -0.03 | [6] -0.054 | [7] -0.039 | [8] 0.044 | [9] -0.001 | [10] -0.027 | [11] 0.048 | [12] 0.031 | [13] 0.011 | [14] -0.01 | [15] 0.054 | [16] 0.005 | [17] -0.055 | [18] 0.021 | [19] -0.016 | [20] -0.042

KIAA2013 isoform 2 (UniProt Q8IYS2)
inactive: [1] -0.04 | [2] -0.048 | [3] 0.002 | [4] -0.077 | [5] -0.005 | [6] 0.062 | [7] 0.015 | [8] 0.065 | [9] -0.074 | [10] -0.034 | [11] -0.023 | [12] 0.071 | [13] 0.046 | [14] -0.029 | [15] 0.035 | [16] 0.069 | [17] -0.033 | [18] -0.01 | [19] 0.006 | [20] 0.013

(further entries)

KBTBD8 (UniProt Q8NFY9)
inactive: [1] -0.129 | [2] -0.057 | [3] 0.009 | [4] -0.122 | [5] -0.048 | [6] -0.002 | [7] 0.156 | [8] -0.057 | [9] -0.12 | [10] -0.258 | [11] 0.018 | [12] -0.15 | [13] 0.039 | [14] 0.001 | [15] -0.009 | [16] -0.088 | [17] 0.018 | [18] 0 | [19] 0.132 | [20] -0.066

KLHL11 (UniProt Q9NVR0)
inactive: [1] 0.044 | [2] -0.053 | [3] 0.071 | [4] -0.081 | [5] -0.174 | [6] -0.008 | [7] 0.054 | [8] -0.045 | [9] 0.042 | [10] 0.034 | [11] 0.071 | [12] -0.079 | [13] 0.045 | [14] 0.008 | [15] 0.38 | [16] -0.017 | [17] -0.188 | [18] 0.092 | [19] -0.014 | [20] 0.073

KARS1 (UniProt Q15046)
inactive: [1] -0.094 | [2] 0.16 | [3] -0.028 | [4] 0.117 | [5] -0.084 | [6] -0.024 | [7] -0.024 | [8] -0.062 | [9] 0.032 | [10] -0.113 | [11] -0.029 | [12] 0.016 | [13] -0.151 | [14] 0.164 | [15] -0.096 | [16] -0.027 | [17] -0.006 | [18] -0.015 | [19] 0.131 | [20] -0.156

KPNA2 (UniProt P52292)
inactive: [1] -0.008 | [2] 0.434 | [3] 0.028 | [4] 0.314 | [5] -0.139 | [6] -0.031 | [7] 0.003 | [8] -0.175 | [9] 0.11 | [10] 0.035 | [11] 0.085 | [12] -0.068 | [13] -0.285 | [14] 0.357 | [15] -0.152 | [16] -0.011 | [17] -0.019 | [18] 0.106 | [19] 0.302 | [20] -0.29

KLF3 (UniProt P57682)
inactive: [1] -0.055 | [2] 0.004 | [3] -0.052 | [4] 0.048 | [5] 0.052 | [6] -0.016 | [7] 0.051 | [8] -0.043 | [9] 0.04 | [10] 0.105 | [11] -0.032 | [12] 0.021 | [13] -0.034 | [14] 0.227 | [15] -0.293 | [16] 0.029 | [17] 0.017 | [18] 0.109 | [19] 0.027 | [20] -0.05

KIAA0319L (UniProt Q8IZA0)
inactive: [1] 0.027 | [2] 0.017 | [3] 0.007 | [4] -0.011 | [5] -0.011 | [6] 0.001 | [7] -0.006 | [8] 0.035 | [9] 0.028 | [10] 0.004 | [11] 0.006 | [12] -0.13 | [13] -0.046 | [14] -0.017 | [15] -0.014 | [16] 0.013 | [17] -0.018 | [18] -0.03 | [19] 0.013 | [20] -0.17

KAZN isoform 3 (UniProt Q674X7)
inactive: [1] -0.095 | [2] -0.05 | [3] -0.153 | [4] 0.011 | [5] 0.065 | [6] -0.037 | [7] 0.028 | [8] 0.017 | [9] 0.015 | [10] -0.021 | [11] -0.082 | [12] -0.009 | [13] -0.078 | [14] -0.076 | [15] 0.031 | [16] -0.058 | [17] -0.033 | [18] 0.003 | [19] 0.005 | [20] 0.036

KIF23 (UniProt Q02241)
inactive: [1] 0.009 | [2] 0.043 | [3] 0.056 | [4] 0.096 | [5] 0.118 | [6] 0.047 | [7] -0.033 | [8] 0.022 | [9] -0.072 | [10] -0.043 | [11] 0.036 | [12] -0.165 | [13] -0.005 | [14] -0.087 | [15] -0.056 | [16] -0.031 | [17] 0.03 | [18] 0.076 | [19] -0.069 | [20] -0.205
